The record followed here is PMC10284700.

By UniProt entry, the sequences of proteins in these tests, tags left out. Where a name states a change or a piece, a line headed by the entry shows the natural chain unless it says otherwise. Chains listed by the source or under a name are the forms on record and can include a tag or linker. Residues count along the entry.
extracellular ligand-binding region (D2–D3 region) of human FGFR1c (P11362, residues 142-366): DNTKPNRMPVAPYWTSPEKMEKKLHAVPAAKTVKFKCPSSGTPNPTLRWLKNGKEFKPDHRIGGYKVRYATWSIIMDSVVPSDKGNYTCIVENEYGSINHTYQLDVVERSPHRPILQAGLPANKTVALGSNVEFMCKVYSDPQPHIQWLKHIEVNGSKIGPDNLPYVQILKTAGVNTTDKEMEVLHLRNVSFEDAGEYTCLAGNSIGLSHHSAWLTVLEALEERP
full-length FGFR1c A167D/V248D (P11362, form named): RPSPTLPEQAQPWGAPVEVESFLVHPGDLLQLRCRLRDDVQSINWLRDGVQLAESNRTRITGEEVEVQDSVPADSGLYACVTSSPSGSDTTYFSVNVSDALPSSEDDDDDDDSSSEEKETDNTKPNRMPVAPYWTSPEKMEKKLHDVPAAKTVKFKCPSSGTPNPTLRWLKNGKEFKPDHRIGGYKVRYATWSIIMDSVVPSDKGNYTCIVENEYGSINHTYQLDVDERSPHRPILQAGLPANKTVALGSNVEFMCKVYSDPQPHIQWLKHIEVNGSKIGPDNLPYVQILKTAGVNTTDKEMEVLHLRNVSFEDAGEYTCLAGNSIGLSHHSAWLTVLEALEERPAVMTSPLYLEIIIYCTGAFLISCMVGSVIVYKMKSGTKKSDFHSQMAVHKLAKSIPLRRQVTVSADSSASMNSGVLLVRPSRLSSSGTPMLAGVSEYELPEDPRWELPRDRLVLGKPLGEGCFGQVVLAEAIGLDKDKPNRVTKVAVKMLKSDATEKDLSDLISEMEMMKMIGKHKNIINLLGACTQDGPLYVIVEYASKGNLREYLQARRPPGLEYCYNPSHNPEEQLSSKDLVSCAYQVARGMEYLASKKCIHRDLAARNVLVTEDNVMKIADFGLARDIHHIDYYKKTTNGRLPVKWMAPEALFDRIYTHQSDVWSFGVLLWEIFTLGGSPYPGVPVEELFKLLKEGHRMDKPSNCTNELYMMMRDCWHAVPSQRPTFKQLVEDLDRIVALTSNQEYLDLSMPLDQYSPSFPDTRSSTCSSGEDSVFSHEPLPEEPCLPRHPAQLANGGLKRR
full-length FGFR1c I203E/S223E (P11362, form named): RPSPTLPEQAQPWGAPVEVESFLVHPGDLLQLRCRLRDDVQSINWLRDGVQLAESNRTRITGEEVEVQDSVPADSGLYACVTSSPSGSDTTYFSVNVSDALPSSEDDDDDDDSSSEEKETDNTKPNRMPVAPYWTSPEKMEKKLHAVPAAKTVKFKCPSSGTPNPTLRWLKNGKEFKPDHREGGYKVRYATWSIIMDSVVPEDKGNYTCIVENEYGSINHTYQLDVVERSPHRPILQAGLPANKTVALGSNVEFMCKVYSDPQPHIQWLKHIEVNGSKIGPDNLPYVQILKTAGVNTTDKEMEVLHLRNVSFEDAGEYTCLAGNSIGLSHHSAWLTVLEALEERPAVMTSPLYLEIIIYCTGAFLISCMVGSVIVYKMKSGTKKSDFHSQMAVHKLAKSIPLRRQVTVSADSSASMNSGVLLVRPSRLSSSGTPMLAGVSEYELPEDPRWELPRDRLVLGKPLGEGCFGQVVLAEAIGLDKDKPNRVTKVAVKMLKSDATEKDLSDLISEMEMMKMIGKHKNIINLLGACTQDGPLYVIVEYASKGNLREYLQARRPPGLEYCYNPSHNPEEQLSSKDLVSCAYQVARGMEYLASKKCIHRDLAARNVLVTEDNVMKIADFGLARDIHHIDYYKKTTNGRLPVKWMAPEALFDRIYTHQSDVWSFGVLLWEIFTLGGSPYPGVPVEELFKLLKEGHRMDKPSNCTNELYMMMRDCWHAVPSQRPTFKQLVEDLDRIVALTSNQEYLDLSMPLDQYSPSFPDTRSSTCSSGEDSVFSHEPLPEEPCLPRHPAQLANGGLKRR

The target of test [1] is T1, entire extracellular domain of human αKlotho (residues Met1 to Ser981) (human) (UniProt Q9UEF7).
T1 sequence: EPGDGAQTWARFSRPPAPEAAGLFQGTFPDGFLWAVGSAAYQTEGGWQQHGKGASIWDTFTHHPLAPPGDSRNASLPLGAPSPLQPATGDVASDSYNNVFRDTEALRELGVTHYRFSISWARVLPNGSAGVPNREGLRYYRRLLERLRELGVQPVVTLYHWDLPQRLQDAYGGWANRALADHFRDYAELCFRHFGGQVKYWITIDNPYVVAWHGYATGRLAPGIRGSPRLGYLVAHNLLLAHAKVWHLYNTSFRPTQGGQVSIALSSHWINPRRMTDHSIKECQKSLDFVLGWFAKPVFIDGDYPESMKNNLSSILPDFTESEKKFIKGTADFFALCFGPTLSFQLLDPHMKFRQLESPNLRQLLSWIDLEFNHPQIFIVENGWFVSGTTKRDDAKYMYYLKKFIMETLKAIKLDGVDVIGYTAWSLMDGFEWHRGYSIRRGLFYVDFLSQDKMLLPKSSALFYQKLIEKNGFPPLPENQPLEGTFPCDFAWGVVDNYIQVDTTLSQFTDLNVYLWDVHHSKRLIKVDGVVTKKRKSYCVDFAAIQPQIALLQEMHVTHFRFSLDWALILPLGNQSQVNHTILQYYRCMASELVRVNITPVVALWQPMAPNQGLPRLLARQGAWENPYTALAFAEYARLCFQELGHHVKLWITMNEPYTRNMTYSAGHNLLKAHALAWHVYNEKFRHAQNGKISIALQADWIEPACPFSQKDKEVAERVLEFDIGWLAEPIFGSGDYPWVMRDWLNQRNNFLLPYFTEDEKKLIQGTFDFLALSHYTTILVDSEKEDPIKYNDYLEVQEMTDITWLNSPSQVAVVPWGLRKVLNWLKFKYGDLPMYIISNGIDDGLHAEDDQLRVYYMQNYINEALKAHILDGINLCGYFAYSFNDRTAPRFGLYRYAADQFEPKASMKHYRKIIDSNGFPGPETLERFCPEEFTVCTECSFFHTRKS
The test can be described thus: cryo-EM structure; FGF23, one FGFR ectodomain, αKlotho^ecto and heparin dodecasaccharide (HO12) mixed 1:1:1:1; complex isolated on Superdex 200 in 25 mM HEPES pH 7.5, 100 mM NaCl; peak fractions vitrified; both purified.

The target of test [2] is T1, entire extracellular domain of human αKlotho (residues Met1 to Ser981) (human). The test can be described thus: SEC-MALS; SEC-purified FGF23–FGFR1c–αKlotho–HS quaternary complex, 50 μl at 1.5 mg/ml, Superdex 200 10/300 GL, 25 mM HEPES pH 7.5, 150 mM NaCl, ambient temperature; both purified. On the technique in general: In gel filtration, larger molecules generally elute earlier.

For test [3], the target named is full-length FGFR1c A167D/V248D (human) (UniProt P11362). Put plainly: proximity ligation; FGFR with FGFR on the surface of stably transfected L6 cells (endogenous HSPGs); serum starved, costimulated with FGF23 and αKlotho^ecto for 20 min, fixed; two primary antibodies from two species for each FGFR isoform, Duolink PLA kit.
Test [4] deals with full-length FGFR1c I203E/S223E (human) (UniProt P11362). Described as above.

These are yes or no findings as the source states them, for the method shown. For some of these results: In cells and extracts the contact can be indirect. Some entries that bind do so weakly or less than the wild type.

“extracellular ligand-binding region (D2–D3 region) of human FGFR1c (from UniProt P11362 142-366) (domain or fragment)”: the binding entry in test [1] and in test [2] was “binds” each time.
For “full-length FGFR1c A167D/V248D (from UniProt P11362 22-822) (receptor)”, the binding result in test [3] is reported as “no binding”.
“full-length FGFR1c I203E/S223E (from UniProt P11362 22-822) (receptor)”: the binding entry in test [4] is “no binding”.
